“Also recorded” adds a separate entry of the source. At least one compound was matched to its structure with a doubt left.
Columns and labels:
[1] = test system: muscle disuse atrophy mouse model; assay: Muscle disuse atrophy mouse model, hindlimb casting for 14 days; assay type: in vivo; conditions: 14 days casting; vs vehicle; p<0.0001
Akt = assay: Western blot of Akt phosphorylation in rat tibialis anterior; assay type: in vivo; conditions: rats, oral dosing 5 consecutive days; 50 mg/kg BID strongest response
[2] = test system: Twenty-month-old male C57/Bl6 mice; assay: Hindlimb immobilization (casting, 21 days) disuse atrophy in aged mice, muscle wet weight; assay type: in vivo, mouse; conditions: 50 mg/kg BID P.O.
Description: Limb immobilization causes a loss of gross skeletal muscle mass accompanied by a significant decrease in apelin transcript levels.
One week into the treatment, mice underwent modified hindlimb casting on one limb. Mice were anesthetized with isoflurane inhalation and the hindlimb wiped with povidone-iodine, then ethanol, and loosely wrapped in surgical gauze. A custom-made plastic immobilization device was placed on the limb, with the foot in full extension, so as to result in the maximal in vivo unloading of the plantarflexor group. The device was fixed to the hindlimb using Vetbond and the animal returned to its cage. After 3 weeks of treatment following casting, mice were euthanized 1 hour after the final ZT1 dose, and tissues isolated, weighed, then flash frozen in liquid nitrogen for subsequent western blot analysis.

[3] = SomaSignal tests on proteomics data of Phase 1b study; assay type: in vivo, human; conditions: end of treatment
[4] = pH of solution in deionized water; assay type: physicochemical; conditions: 275 ug/mL
pAMPK = assay: Western blot of pAMPK in mouse heart after oral dosing; assay type: in vivo; conditions: mice, oral 45 mg/kg; vs vehicle
pAkt = assay: Western blot of pAkt in mouse soleus after oral dosing; assay type: in vivo; conditions: mice, oral 45 mg/kg; vs vehicle; p=0.0516
25-HMC [5] = assay: RT-PCR of early proliferation markers, donor two cells; assay type: cell-based, human; conditions: younger cells
[6] = test system: adults over 65 years of age receiving invasive mechanical ventilation; assay: Phase 2 clinical study in older mechanically ventilated patients (diaphragm atrophy); assay type: in vivo, human; conditions: planned Phase 2 study; IV daily for 10 days
[7] = test system: 24-month-old C57BL/6 mice; assay: Grid hang test in aged mice (frailty study); assay type: in vivo, mouse; conditions: after 64 days of treatment; vs vehicle
apelin receptor [8] = assay: Apelin receptor levels after one month of treatment in immobilization study; assay type: in vivo, mouse; conditions: 50 mg/kg BID
[9] = test system: healthy older adult humans; assay: Example 8: 10-day bed rest in healthy older adults, 200 mg a day; assay type: in vivo, human; conditions: 10 days bed rest, paper example
[10] = test system: fast and slow skeletal muscle; assay: snRNAseq of vastus lateralis muscle biopsies from Phase 1b study; assay type: in vivo, human
Description: FIG. 40 illustrates nuclei isolation for 10× Genomics single cell transcriptome gene expression technology used to assess tissue samples. […] Tissue samples were collected from patients and processed in a laboratory. Tissues were dissociated and cleaned up. The debris were removed and the sample (e.g., nuclei) was washed, resuspended for multiple cycles according to routine tissue processing procedures. Cell nuclei were visualized and counted using standard transcriptome gene expression technologies 10× Genomics single cell library technology is used for assessing tissue samples.
Cell type clustered include fast skeletal muscle, slow skeletal muscle (type 1), myofibroblast, tenocytes, fibroblasts, muscle stem cells, pericytes, smooth muscle, endothelial cells, T/NK cells, and adipocytes. Two methods and two annotations were used.

healthy adult subjects = assay: Phase 1 study Part A (SAD), insulin resistance (HOMA-IR); assay type: in vivo, human; conditions: SAD cohorts 1, 2 and 3; Day 3 Predose and Day 4 visits; largest in cohort 3; preliminary
[11] = Tissue wet weight and body weight at end of frailty study; assay type: in vivo, mouse; conditions: vs vehicle
[12] = test system: 24-month-old C57BL/6 mice; assay: Activity monitoring wheel test in aged mice (frailty study); assay type: in vivo, mouse; conditions: 275 ug/mL in drinking water, about 2 months
Procedure: The animals were housed with access to voluntary running wheels that wirelessly transmit running data to a computer for analysis. Voluntary running wheel activity levels were measured daily, and body weights were measured every 2 weeks.
The study concluded on Study Day 83. Activity wheel monitoring started on Study Day 1 and ended on Study Day 83 (Phase Day 64). The data was analyzed at the end of the study. […] For the frailty portion of the study, mice were assessed using an activity monitoring wheel which was monitored passively with a computer monitoring system.
BGE-105 was administered in drinking water consumed ad libitum. The compound is mildly acidic when dissolved, resulting in a pH 4.5 solution. The deionized water was adjusted to pH 8.5 by adding 1N NaOH. […]
The activity-monitoring wheel is a running disk that monitors rotations. […] Activity was monitored passively and wirelessly with a computer monitoring system. Running wheel activity levels were monitored daily. […] Mouse activity levels were measured as the number of wheel revolutions per day for each mouse and converted into a daily count of kilometers run using the diameter of the wheel. Within each experimental group, the daily median value for activity was calculated. […] The daily differences between the distances run in each group were calculated and tested for an increasing trend using Kendall's rank correlation tau.

25-HMC [13] = assay: Proliferation of immortalized human muscle cells donor two; assay type: cell-based; conditions: younger subject cells
79-HMC [14] = assay: RT-PCR of early proliferation markers, donor one cells; assay type: cell-based, human
79-HMC [15] = assay: Proliferation of immortalized human muscle cells donor one; assay type: cell-based; conditions: older subject cells
[16] = test system: healthy volunteers aged ≥65 years; assay: Phase 1b bed rest study, muscle protein synthesis rate (heavy water, vastus lateralis microbiopsy); assay type: in vivo, human; conditions: after 10 days of bed rest
Procedure: Heavy Water Consumption and Assessments. For subjects in Part B only, heavy water, deuterated H2O (D2O), is provided to subjects to drink during the pre-treatment and treatment periods before breakfast, in the afternoon, and after fasting overnight, at timepoints described previously. Blood samples (10 mL) and urine samples are collected at timepoints described previously to assess skeletal muscle protein fractional synthetic rate (FSR).
Skeletal muscle protein synthesis rate (%/time) for individual muscle proteins are compared first as a linear contrast including all doses versus placebo and then as individual dose comparisons to placebo.
One day before (baseline, D-1) and 5 (D5) and 10 (D10) days after initiation of bed rest, key muscle atrophy endpoints were measured: thigh circumference; cross-sectional area (CSA) and A-P diameter of vastus lateralis (ultrasound); ultrasound muscle quality grade, an index that quantifies fatty degeneration in muscle (ultrasound echo density); and muscle protein synthesis rate (biopsy). Parameters measured during the 10-day bed rest period include thigh circumference, muscle size, muscle quality (e.g., fatty degeneration), and muscle protein synthetic rate.

apelin receptor [17] = assay: Western blot of apelin receptor levels in rat tibialis anterior after chronic dosing; assay type: in vivo; conditions: rats, 5 consecutive days oral; 50 mg/kg QD and 200 mg/kg BID
[18] = after 10 days of bedrest vs baseline

SMILES: COc1cccc(OC)c1-n1c(NS(=O)(=O)[C@@H](C)[C@H](C)c2ncc(C)cn2)nnc1-c1cncc(C)c1 [BGE-105, (2S,3R)—N-(4-(2,6-dimethoxyphenyl)-5-(5-methyl-3-pyridinyl)-4H-1,2,4-triazol-3-yl)-3-(5-methyl-2-pyrimidinyl)-2-butanesulfonamide]
- loss of muscle mass in tibialis anterior of casted vs non-casted limb [1]: prevented the loss of muscle mass
- phosphorylation of Akt in TA (Akt): dose-dependent manner
- atrophy of extensor digitorum longus (EDL) ([2]; 21 days immobilization (placebo group 14%)): did not measurably atrophy
- atrophy of soleus ([2]; effect not significant): modest rescue
- predicted basal metabolic rate and VO2 max by SomaSignal test ([3]; p=0.004): higher
- resting energy expenditure predicted by SomaSignal test ([3]; p=0.03): rescued
- pH of solution when dissolved [4]: 4.5
- pAMPK levels in the heart (pAMPK): significantly higher
- pAkt levels in the soleus (pAkt): marginally significant increase
- MyoD expression level (25-HMC [5]; 5 nM): very significant increase
- MyoG expression level (25-HMC [5]; 0.05-50 nM): no significant change
- PAX7 expression level (25-HMC [5]; 5 and 50 nM, apelin 1 nM comparator): recapitulated the levels of apelin
- MYf5 expression level (25-HMC [5]; any amount (0.05-50 nM), relative to control): no change
- diaphragm muscle atrophy during early course of mechanical ventilation [6]: prevents diaphragm muscle atrophy
- latency to fall in grid hang test (grip strength) [7]: statistically significant improvements; also recorded: increased
- apelin receptor levels after chronic treatment (apelin receptor [8]): noticeable but non-significant drop
- muscle atrophy in immobilized human muscles [9]: prevent or attenuate muscle atrophy
- expression of genes involved in triglyceride storage and fatty acid metabolism (DGAT2, GOS2, FABP4) ([10]; after 10 days of bedrest): prevents bed rest-induced upregulation
- expression of genes of muscle metabolic processes / glucose metabolism (insulin, AMPK, glucagon signaling) [10, 18]: prevented detrimental expression level; also recorded: preserved gene expression
- expression of mitochondrial biogenic regulator PGC-1α and all respiratory complexes [10, 18]: prevented bed rest-induced downregulation
- expression of muscle contractile proteins in fast and slow skeletal muscle (TNNC1, MYH7, TPM2; SERCA2, MYL3) [10, 18]: prevented bed rest-induced downregulation
- bulk expression level of TNNC1 and MYH7 ([10]; day 11, treated vs placebo): higher
- bulk expression level of VEGFA, PPRGC1A and COL1A1 ([10]; day 11, treated vs placebo): higher
- APLNR expression in endothelial cells ([10]; treated vs placebo, day 6 and day 11): expressed in more Endothelial cells
- percent change from baseline in HOMA-IR (healthy adult subjects): decrease
- tissue wet weight, gastrocnemius and quadriceps [11]: trend toward higher
- tissue wet weight, heart [11]: no difference
- tissue wet weight, tibialis anterior (TA) [11]: significantly higher
- body weight ([11]; p 0.0850): increase was not significant
- voluntary running wheel activity vs controls [12]: statistically significant increase; also recorded: significantly more active; also recorded: statistically significant improvements
- cell proliferation (day 4) (25-HMC [13]; 5 nM): increase
- cell proliferation (day 4) (25-HMC [13]; 50 nM): significant increase
- PAX7 expression level (79-HMC [14]; older cells, all treatment doses vs control): significant increase
- MyoG expression level (79-HMC [14]; older cells, all treatment levels): increase at all treatment levels
- Myf5 expression level (79-HMC [14]; older donor cells, 5 and 50 nM): equal to apelin treatment
- MyoD expression level (79-HMC [14]; older donor cells, all treatment levels): increase at all treatment levels
- cell proliferation (day 4) (79-HMC [15]; 5 nM): significant increase
- cell proliferation (day 4) (79-HMC [15]; 50 nM): increase
- muscle protein synthesis in the vastus lateralis vs placebo [16]: significantly ameliorated; also recorded: relatively higher muscle protein synthesis
- apelin receptor levels in the TA (apelin receptor [17]): modest but non-significant decrease

Source: US20240122926A1, “APELIN RECEPTOR MODULATORS FOR TREATING MUSCLE CONDITIONS” (priority 2022, published 2024)
